The supplement of paper PMC12823440, “Inhibitors supercharge kinase turnover through native proteolytic circuits” (Nature, 2025)
Counter-ions that a name gives are not always drawn. The list shows a part of the results. The calls rarely recur for the same compound in another form.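 Kinases, fused to nanoluciferase, were expressed in K562 cells; luminescence was measured every 4 h from 2 to 18 h as percent of control (DMSO = 100%, positive control = 0%). A time point is decreased if signal falls significantly (2 sigma). Hits were called by the authors by a rule that is not shown; the count of time points alone does not decide it.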

Sequences of proteins named here, by UniProt entry; tags and fusion partners are left off. A change or cut given only in a name is not applied to a line headed by its entry.
UniProt P53667: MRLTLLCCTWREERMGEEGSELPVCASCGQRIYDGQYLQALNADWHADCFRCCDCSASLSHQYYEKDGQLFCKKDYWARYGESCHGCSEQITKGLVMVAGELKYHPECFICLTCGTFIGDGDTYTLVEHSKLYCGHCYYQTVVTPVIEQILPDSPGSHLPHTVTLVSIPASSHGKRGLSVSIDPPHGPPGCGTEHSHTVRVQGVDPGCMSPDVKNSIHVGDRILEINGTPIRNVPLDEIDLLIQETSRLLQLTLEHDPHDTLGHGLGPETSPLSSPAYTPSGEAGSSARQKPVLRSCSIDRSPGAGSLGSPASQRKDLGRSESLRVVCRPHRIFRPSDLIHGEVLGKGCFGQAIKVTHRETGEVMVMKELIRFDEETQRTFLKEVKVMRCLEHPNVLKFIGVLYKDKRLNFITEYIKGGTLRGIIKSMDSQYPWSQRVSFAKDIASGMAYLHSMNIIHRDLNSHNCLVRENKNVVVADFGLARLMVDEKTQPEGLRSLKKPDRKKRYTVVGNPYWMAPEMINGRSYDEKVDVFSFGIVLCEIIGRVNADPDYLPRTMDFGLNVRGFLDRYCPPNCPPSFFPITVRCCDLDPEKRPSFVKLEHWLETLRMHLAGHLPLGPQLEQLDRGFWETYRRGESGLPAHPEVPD

Each compound was assayed against LIMK1 (UniProt P53667) (assay: number of time points (of 5) at which kinase-Nluc abundance scored as decreased, DMSO-normalised (count); higher = more persistent destabilization). Conditions: K562; 2-18 h.
`Cc1cnc(Cl)nc1-c1ccc(N(Cc2ccc(CNC(=O)C(F)F)cc2)C(=O)c2ccc(O)cc2O)cc1` (10 µM) was tested, and the “number of time points” value was 0. In the case of `COc1cc2c(cc1OC)[C@@H]1C(=O)c3ccc4c(c3O[C@@H]1CO2)C=CC(C)(C)O4` [Deguelin] (10 µM), the “number of time points” value is reported as 0. `CC(C)(CCCCCC(O)CCCCCC(C)(C)C(=O)O)C(=O)O` [Bempedoic acid] (10 µM) was tested, and the “number of time points” value was 0. `COc1cc2nnc(C(N)=O)c(Nc3ccc(C)cc3F)c2cc1N1CCN(CCO)CC1` (2.5 µM) was tested, and the “number of time points” value was 0. `O=C(Nc1ccc(Cl)cc1)C1CN(C(=O)c2cccc(-c3ccco3)c2)CC(F)(F)C1` (stereo not drawn) (2.5 µM) was tested, and the “number of time points” value was 0. `CC(=O)O[C@@H]1[C@@H](OC(C)=O)[C@@H](O)[C@H](Oc2c(-c3ccc(O)cc3)oc3cc(O)cc(O)c3c2=O)O[C@H]1C` (10 µM) was tested, and the “number of time points” value was 0. In the case of `COc1cc2nc(-c3cc(F)ccc3O)nc(N[C@@H]3CNC[C@H]3C(C)(C)O)c2cc1OC` (2.5 µM), the “number of time points” value is reported as 0. In the case of `C=CC(=O)Nc1cccc(Oc2nc(Nc3ccc(N4CCN(C)CC4)cc3OC)ncc2Cl)c1` (10 µM), the “number of time points” value is reported as 0. In the case of `C=CC(=O)Nc1cc(Nc2nccc(-c3cn(C)c4ccccc34)n2)c(OCC(F)(F)F)nc1N(C)CCNC` [AST5902  (trimesylate)] (2.5 µM), the “number of time points” value is reported as 1. For `O=C1C=CC2=C3c4cc(O)c(O)cc4CC3(O)COC2=C1O` (stereo not drawn) [Hematein] (10 µM), the “number of time points” value was 0. In the case of `CCC(F)(F)c1cc(N2CCC(S(C)(=O)=O)CC2)nc2sc(C(N)=O)c(N)c12` (10 µM), the “number of time points” value is reported as 0. In the case of `Cn1cc(C2=C(c3ccc(Cl)cc3Cl)C(=O)NC2=O)c2ccccc21` (10 µM), the “number of time points” value is reported as 0. `CCOC(=O)c1c(N2CCc3ccc(OC)cc3C2)oc(C=C2C=Nc3ncccc32)c1O` (10 µM) was tested, and the “number of time points” value was 0. `O=C(COc1ccc(Cl)cc1)NC1CCC(NC(=O)COc2ccc(Cl)cc2)CC1` (stereo not drawn) [ISRIB (trans-isomer)] (10 µM) was tested, and the “number of time points” value was 0. In the case of `COc1ccc(CCNCc2ccc(OCc3ccc(Cl)nc3)c(OC)c2)cc1OC` [SBE13 (Hydrochloride)] (10 µM), the “number of time points” value is reported as 0. In the case of `Cc1cccc(CC(=O)N2CCc3c2ccc(-c2cn(C)c4ncnc(N)c24)c3F)n1` (10 µM), the “number of time points” value is reported as 0. With `COc1cc(N2CCC(N3CCN(C)CC3)CC2)ccc1Nc1ncnc(Nc2ccccc2S(=O)(=O)C(C)C)n1` (10 µM) the “number of time points” value was 0. `CC(C)(Oc1ccc(Cl)cc1)C(=O)Nc1ccc(OCc2ccc(C#N)cc2)cc1` [AMPK activator 4] (10 µM) was tested, and the “number of time points” value was 0. For `Cc1cc(N2CCOCC2)ccc1Nc1nc(NC2CCCCC2)c2[nH]cnc2n1` (10 µM), the “number of time points” value was 0. In the case of `COC(=O)N1CCN(C2CCC(Nc3nc(Nc4cnn(C)c4)nc4ccc(CC#N)nc34)CC2)CC1` (stereo not drawn) (10 µM), the “number of time points” value is reported as 0. For `CN(C)CCn1cc2cc(NC(=O)c3cccc(C(F)(F)F)n3)c(C(C)(C)O)cc2n1` (10 µM), the “number of time points” value was 0. For `CCOc1cc(N2CCC(O)CC2)ccc1Nc1ncc2c(n1)N(C1CCCC1)CCC(=O)N2C` (2.5 µM), the “number of time points” value was 0. `CCC[C@H](C)Oc1nc(N)c2[nH]c(=O)n(CCCCCN3CCCCC3)c2n1` (10 µM) was tested, and the “number of time points” value was 0. In the case of `Fc1ccc(-c2nc3n(c2-c2ccncc2)CCS3)cc1` (10 µM), the “number of time points” value is reported as 0. `CC(ONC(=O)c1cc(C(F)(F)F)cc(C(F)(F)F)c1)C(=O)Nc1ccc(Cl)cc1` (stereo not drawn) (2.5 µM) was tested, and the “number of time points” value was 0. `O=C(Nc1ccccc1C(=O)NC1CCCCNC1=O)c1cc2ccccc2s1` (stereo not drawn) (10 µM) was tested, and the “number of time points” value was 0. With `N#CC(=C(/N)Sc1ccccc1N)/C(C#N)=C(\N)Sc1ccccc1N` (10 µM) the “number of time points” value was 0. `Nc1ccc(O)c(C(=O)O)c1` [5-Aminosalicylic Acid] (10 µM) was tested, and the “number of time points” value was 0. For `CNCc1ccccc1Sc1cccc2ccccc12` [IFN alpha-IFNAR-IN-1 (hydrochloride)] (10 µM), the “number of time points” value was 3. `CCCCNc1ncc2c(-c3ccc(F)cc3)nn(CC3CCC(N)CC3)c2n1` (stereo not drawn) (2.5 µM) was tested, and the “number of time points” value was 0. `Cc1ncsc1-c1ccc(CNC(=O)[C@@H]2C[C@@H](O)CN2C(=O)[C@@H](NC(=O)COCCOc2ccc(-c3cc(Nc4ccc(OC(F)(F)F)cc4)ncn3)cc2)C(C)(C)C)cc1` (2.5 µM) was tested, and the “number of time points” value was 0. `Cn1cnc2c(F)c(Nc3ccc(Br)cc3F)c(C(=O)NOCCO)cc21` [Binimetinib] (10 µM) was tested, and the “number of time points” value was 0. `O=C1NC(=O)C(Cc2c[nH]c3c(Cl)cccc23)N1` (stereo not drawn) [Necroptosis-IN-1] (10 µM) was tested, and the “number of time points” value was 0. In the case of `C=CC(=O)N1CCC(c2ccc(C(N)=O)c(-c3ccc(Oc4ccccc4)cc3)n2)CC1` [Orelabrutinib] (2.5 µM), the “number of time points” value is reported as 0. For `CN1C(=O)N[C@@H](Cc2c[nH]c3c(Cl)cccc23)C1=O` [Necrostatin 2 (S enantiomer)] (10 µM), the “number of time points” value was 0. In the case of `N#Cc1cc(-c2ccnc(Nc3ccc(N4CCOCC4)cc3)n2)ccc1OC1CCOCC1` (10 µM), the “number of time points” value is reported as 0. For `COc1cccc(-c2cc(=O)c3ccccc3o2)c1N` (10 µM), the “number of time points” value was 0. With `Nc1ccc(Sc2nc3ccccc3s2)c(Cl)c1` [KRAS inhibitor-9] (10 µM) the “number of time points” value was 0.
